Reference: the supplement of paper PMC8728848
Some of the results follow.

Key:
Test in all cases: glycan array binding signal (z-score within array); higher = stronger binding
Settings in all cases: glycan notation: IUPAC condensed, linker removed
[1] = target: Fuc(a1-2)Gal(b1-4)GlcNAc(b1-3)Gal(b1-4)GlcNAc(b1-3)Gal(b1-4)GlcNAc
Procedure, shortened: (§1)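 The Consortium for Functional Glycomics database supplied 3228 glycan arrays, of which those lacking an available protein sequence were dropped. The binding signal, a within-array Z-score, was averaged across arrays of the same protein sequence and across linkers. Negative scores can be read as non-binding.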

[2] = target: Fuc(a1-2)Gal(b1-4)GlcNAc(b1-3)GalNAc
Procedure, shortened: as §1

[3] = target: Fuc(a1-2)Gal(b1-4)GlcNAc(b1-3)[Fuc(a1-2)Gal(b1-4)GlcNAc(b1-6)]GalNAc
Procedure, shortened: as §1

[4] = target: Fuc(a1-2)Gal(b1-4)GlcNAc(b1-3)[Fuc(a1-3)[Gal(b1-4)]GlcNAc(b1-6)]Gal(b1-4)Glc
Procedure, shortened: as §1

[5] = target: Fuc(a1-2)Gal(b1-4)GlcNAc(b1-6)GalNAc
Procedure, shortened: as §1

[6] = target: Fuc(a1-2)Gal(b1-4)GlcNAc6S
Procedure, shortened: as §1

[7] = target: Fuc(a1-2)Gal(b1-4)[Fuc(a1-3)]GlcNAc
Procedure, shortened: as §1

[8] = target: Fuc(a1-2)Gal(b1-4)[Fuc(a1-3)]GlcNAc(b1-2)Man(a1-3)[Fuc(a1-2)Gal(b1-4)[Fuc(a1-3)]GlcNAc(b1-2)Man(a1-6)]Man(b1-4)GlcNAc(b1-4)[Fuc(a1-6)]GlcNAc
Procedure, shortened: as §1

[9] = target: Fuc(a1-2)Gal(b1-4)[Fuc(a1-3)]GlcNAc(b1-2)[Fuc(a1-2)Gal(b1-4)[Fuc(a1-3)]GlcNAc(b1-4)]Man(a1-3)[Fuc(a1-2)Gal(b1-4)[Fuc(a1-3)]GlcNAc(b1-2)Man(a1-6)]Man(b1-4)GlcNAc(b1-4)GlcNAc
Procedure, shortened: as §1

[10] = target: Fuc(a1-2)Gal(b1-4)[Fuc(a1-3)]GlcNAc(b1-3)Gal(b1-4)[Fuc(a1-3)]GlcNAc
Procedure, shortened: as §1

[11] = target: Fuc(a1-2)Gal(b1-4)[Fuc(a1-3)]GlcNAc(b1-3)Gal(b1-4)[Fuc(a1-3)]GlcNAc(b1-3)Gal(b1-4)[Fuc(a1-3)]GlcNAc
Procedure, shortened: as §1

[12] = target: Fuc(a1-2)Gal(b1-4)[Fuc(a1-3)]GlcNAc(b1-3)GalNAc
Procedure, shortened: as §1

[13] = target: Fuc(a1-2)Gal(b1-4)[Fuc(a1-3)]GlcNAc(b1-3)[Neu5Ac(a2-6)Gal(b1-4)GlcNAc(b1-6)]Gal(b1-4)Glc
Procedure, shortened: as §1

[14] = target: Fuc(a1-2)Gal3S(b1-4)GlcNAc
Procedure, shortened: as §1

[15] = target: Fuc(a1-2)Gal6S(b1-3)GlcNAc
Procedure, shortened: as §1

[16] = target: Fuc(a1-2)Gal6S(b1-3)GlcNAc6S
Procedure, shortened: as §1

[17] = target: Fuc(a1-2)Gal6S(b1-4)Glc
Procedure, shortened: as §1

[18] = target: Fuc(a1-2)Gal6S(b1-4)Glc6S
Procedure, shortened: as §1

[19] = target: Fuc(a1-2)[Gal(a1-3)]Gal
Procedure, shortened: as §1

[20] = target: Fuc(a1-2)[Gal(a1-3)]Gal(b1-3)GalNAc
Procedure, shortened: as §1

[21] = target: Fuc(a1-2)[Gal(a1-3)]Gal(b1-3)GalNAc(b1-3)Gal(a1-4)Gal(b1-4)Glc
Procedure, shortened: as §1

[22] = target: Fuc(a1-2)[Gal(a1-3)]Gal(b1-3)GlcNAc
Procedure, shortened: as §1

[23] = target: Fuc(a1-2)[Gal(a1-3)]Gal(b1-3)GlcNAc(b1-2)Man(a1-3)[Fuc(a1-2)[Gal(a1-3)]Gal(b1-3)GlcNAc(b1-2)Man(a1-6)]Man(b1-4)GlcNAc(b1-4)GlcNAc
Procedure, shortened: as §1

[24] = target: Fuc(a1-2)[Gal(a1-3)]Gal(b1-3)GlcNAc(b1-2)Man(a1-3)[Fuc(a1-2)[Gal(a1-3)]Gal(b1-3)GlcNAc(b1-2)Man(a1-6)]Man(b1-4)GlcNAc(b1-4)[Fuc(a1-6)]GlcNAc
Procedure, shortened: as §1

[25] = target: Fuc(a1-2)[Gal(a1-3)]Gal(b1-3)GlcNAc(b1-3)GalNAc
Procedure, shortened: as §1

[26] = target: Fuc(a1-2)[Gal(a1-3)]Gal(b1-3)GlcNAc(b1-6)GalNAc
Procedure, shortened: as §1

[27] = target: Fuc(a1-2)[Gal(a1-3)]Gal(b1-4)Glc
Procedure, shortened: as §1

[28] = target: Fuc(a1-2)[Gal(a1-3)]Gal(b1-4)GlcNAc
Procedure, shortened: as §1

[29] = target: Fuc(a1-2)[Gal(a1-3)]Gal(b1-4)GlcNAc(b1-2)Man
Procedure, shortened: as §1

[30] = target: Fuc(a1-2)[Gal(a1-3)]Gal(b1-4)GlcNAc(b1-2)Man(a1-3)[Fuc(a1-2)[Gal(a1-3)]Gal(b1-4)GlcNAc(b1-2)Man(a1-6)]Man(b1-4)GlcNAc(b1-4)GlcNAc
Procedure, shortened: as §1

B1: B936 (Bifidobacterium sp) (protein)
chain: MKNWKKAIALVASAAALVSVAACGPSNAGGSSDSGKKTVGFVAVGPEGGFRTANEKDIQKAFEDAGFDLTYSPTQNNDQQKQIQAFNKFVNDEVDAIILSSTEDSGWDDSLKKAAEAEIPVFTVDRNVDVKDAEAKKAIVAHIGPSNVWCGEQAAEFVNKNFPDGANGFILEGPAGLSVVKDRGTGWGNKVASNVKVLESQSANWSTDEAKTVTAGLLDKYKSDNPQFIFAQNDEMGLGAAQAVDAAGLKGKVKIITIDGTKNALQALVDGDLSYVIEYNPIFGKETAQAVKDYLDGKTVEKDIEIESKTFDAASAKEALDNNTRAY
glycan array binding signal (z-score) [1]: 0.208
glycan array binding signal (z-score) [2]: 0.09
glycan array binding signal (z-score) [3]: 0.272
glycan array binding signal (z-score) [4]: -0.124
glycan array binding signal (z-score) [5]: 0.119
glycan array binding signal (z-score) [6]: -0.093
glycan array binding signal (z-score) [7]: -0.396
glycan array binding signal (z-score) [8]: 0.255
glycan array binding signal (z-score) [9]: 0.564
glycan array binding signal (z-score) [10]: -0.393
glycan array binding signal (z-score) [11]: 0.372
glycan array binding signal (z-score) [12]: 0.154
glycan array binding signal (z-score) [13]: -0.433
glycan array binding signal (z-score) [14]: -0.056
glycan array binding signal (z-score) [15]: 0.442
glycan array binding signal (z-score) [16]: -0.281
glycan array binding signal (z-score) [17]: -0.781
glycan array binding signal (z-score) [18]: -0.861
glycan array binding signal (z-score) [19]: -0.542
glycan array binding signal (z-score) [20]: -0.296
glycan array binding signal (z-score) [21]: -0.268
glycan array binding signal (z-score) [22]: -0.377
glycan array binding signal (z-score) [23]: 0.607
glycan array binding signal (z-score) [24]: 0.306
glycan array binding signal (z-score) [25]: -0.708
glycan array binding signal (z-score) [26]: -0.878
glycan array binding signal (z-score) [27]: 0.094
glycan array binding signal (z-score) [28]: -0.138
glycan array binding signal (z-score) [29]: -0.922
glycan array binding signal (z-score) [30]: -0.146
